No constants are given. Whether binding was seen depends on the method and setting. Binding seen in cells or lysates may run through a third protein. Some binding calls cover weakened binding; strength is not graded here. For some assays here: Sequences can lack the tags named with a protein.

The chains behind the UniProt entries cited, without tags or fusion partners.
UniProt Q9JMB7: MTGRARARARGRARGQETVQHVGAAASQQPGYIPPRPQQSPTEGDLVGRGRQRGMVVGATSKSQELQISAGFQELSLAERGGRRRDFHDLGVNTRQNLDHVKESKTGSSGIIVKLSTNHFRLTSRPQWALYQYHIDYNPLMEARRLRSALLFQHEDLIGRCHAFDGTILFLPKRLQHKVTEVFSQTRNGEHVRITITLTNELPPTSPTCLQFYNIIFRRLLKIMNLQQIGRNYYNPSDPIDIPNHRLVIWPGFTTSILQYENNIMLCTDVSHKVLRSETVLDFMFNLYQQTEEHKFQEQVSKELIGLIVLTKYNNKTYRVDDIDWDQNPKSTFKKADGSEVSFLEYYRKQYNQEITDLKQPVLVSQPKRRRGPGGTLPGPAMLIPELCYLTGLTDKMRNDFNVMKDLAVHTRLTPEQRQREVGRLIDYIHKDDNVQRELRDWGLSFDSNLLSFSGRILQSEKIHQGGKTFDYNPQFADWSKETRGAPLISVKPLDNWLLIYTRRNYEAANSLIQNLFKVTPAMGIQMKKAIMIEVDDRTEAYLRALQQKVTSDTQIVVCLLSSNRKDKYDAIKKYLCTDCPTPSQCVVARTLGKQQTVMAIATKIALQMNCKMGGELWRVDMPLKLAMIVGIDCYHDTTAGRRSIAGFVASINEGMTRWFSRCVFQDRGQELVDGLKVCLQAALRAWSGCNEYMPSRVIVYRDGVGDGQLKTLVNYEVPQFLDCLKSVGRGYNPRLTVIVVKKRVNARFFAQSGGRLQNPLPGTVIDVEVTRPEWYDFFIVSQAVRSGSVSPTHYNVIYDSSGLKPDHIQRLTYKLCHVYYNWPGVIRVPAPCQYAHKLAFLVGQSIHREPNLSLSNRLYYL
UniProt Q9WTL8: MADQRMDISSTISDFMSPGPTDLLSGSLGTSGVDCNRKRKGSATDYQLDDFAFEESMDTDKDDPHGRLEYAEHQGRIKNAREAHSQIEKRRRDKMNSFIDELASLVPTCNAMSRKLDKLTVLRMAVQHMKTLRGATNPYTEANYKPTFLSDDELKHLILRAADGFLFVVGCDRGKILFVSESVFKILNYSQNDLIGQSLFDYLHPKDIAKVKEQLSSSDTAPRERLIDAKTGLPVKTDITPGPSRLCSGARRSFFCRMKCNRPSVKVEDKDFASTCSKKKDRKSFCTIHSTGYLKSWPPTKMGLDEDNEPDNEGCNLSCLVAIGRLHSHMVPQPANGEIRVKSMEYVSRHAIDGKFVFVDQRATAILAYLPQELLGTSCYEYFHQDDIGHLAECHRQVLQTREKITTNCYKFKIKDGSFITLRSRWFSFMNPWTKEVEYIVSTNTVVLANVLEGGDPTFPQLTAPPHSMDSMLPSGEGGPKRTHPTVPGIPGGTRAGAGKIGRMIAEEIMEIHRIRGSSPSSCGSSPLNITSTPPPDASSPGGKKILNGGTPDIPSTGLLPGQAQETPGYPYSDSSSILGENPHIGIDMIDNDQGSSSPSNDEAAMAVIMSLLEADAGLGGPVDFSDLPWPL
UniProt P63073: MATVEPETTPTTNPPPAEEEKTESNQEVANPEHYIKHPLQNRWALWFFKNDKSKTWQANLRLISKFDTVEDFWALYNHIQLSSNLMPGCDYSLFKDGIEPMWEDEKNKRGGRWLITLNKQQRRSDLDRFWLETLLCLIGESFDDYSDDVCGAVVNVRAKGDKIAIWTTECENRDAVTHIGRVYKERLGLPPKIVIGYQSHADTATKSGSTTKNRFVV

Experiment [1] deals with T1, CLOCK (endogenous, mouse seminiferous tubules) (mouse (endogenous in seminiferous tubules)) (UniProt O08785).
T1 sequence: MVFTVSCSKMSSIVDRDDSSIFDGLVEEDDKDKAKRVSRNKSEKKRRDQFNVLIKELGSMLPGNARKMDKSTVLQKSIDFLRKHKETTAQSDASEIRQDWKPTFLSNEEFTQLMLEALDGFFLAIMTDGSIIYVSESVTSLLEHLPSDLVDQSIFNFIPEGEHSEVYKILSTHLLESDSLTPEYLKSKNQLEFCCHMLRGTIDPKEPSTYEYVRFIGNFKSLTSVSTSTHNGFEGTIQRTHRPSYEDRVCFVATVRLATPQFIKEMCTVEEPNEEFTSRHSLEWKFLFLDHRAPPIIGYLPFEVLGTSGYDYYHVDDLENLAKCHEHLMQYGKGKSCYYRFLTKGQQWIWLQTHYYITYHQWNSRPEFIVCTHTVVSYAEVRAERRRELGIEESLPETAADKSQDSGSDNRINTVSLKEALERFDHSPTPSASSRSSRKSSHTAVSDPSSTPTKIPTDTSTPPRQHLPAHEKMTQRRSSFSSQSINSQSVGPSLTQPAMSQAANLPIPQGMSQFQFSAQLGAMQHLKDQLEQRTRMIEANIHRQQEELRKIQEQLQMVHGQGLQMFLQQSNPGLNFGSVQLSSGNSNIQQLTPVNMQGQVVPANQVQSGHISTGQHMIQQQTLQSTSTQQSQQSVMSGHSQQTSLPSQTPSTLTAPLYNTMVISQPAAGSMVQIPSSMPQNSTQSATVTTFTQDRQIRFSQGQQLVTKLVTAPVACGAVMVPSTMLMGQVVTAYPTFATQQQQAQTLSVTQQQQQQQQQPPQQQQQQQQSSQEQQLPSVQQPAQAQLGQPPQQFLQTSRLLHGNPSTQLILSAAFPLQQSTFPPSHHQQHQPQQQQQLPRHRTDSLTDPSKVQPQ
Briefly: co-IP; 750 ug of total protein from seminiferous tubules of WT and Bmal1 KO mice; anti-CLOCK antibody; blots of endogenous proteins (Figure S1).

The target in experiment [2] is T2, Flag-MVH (mouse VASA homolog, ATP-dependent DEAD-box RNA helicase) (mouse) (UniProt Q61496).
T2 sequence: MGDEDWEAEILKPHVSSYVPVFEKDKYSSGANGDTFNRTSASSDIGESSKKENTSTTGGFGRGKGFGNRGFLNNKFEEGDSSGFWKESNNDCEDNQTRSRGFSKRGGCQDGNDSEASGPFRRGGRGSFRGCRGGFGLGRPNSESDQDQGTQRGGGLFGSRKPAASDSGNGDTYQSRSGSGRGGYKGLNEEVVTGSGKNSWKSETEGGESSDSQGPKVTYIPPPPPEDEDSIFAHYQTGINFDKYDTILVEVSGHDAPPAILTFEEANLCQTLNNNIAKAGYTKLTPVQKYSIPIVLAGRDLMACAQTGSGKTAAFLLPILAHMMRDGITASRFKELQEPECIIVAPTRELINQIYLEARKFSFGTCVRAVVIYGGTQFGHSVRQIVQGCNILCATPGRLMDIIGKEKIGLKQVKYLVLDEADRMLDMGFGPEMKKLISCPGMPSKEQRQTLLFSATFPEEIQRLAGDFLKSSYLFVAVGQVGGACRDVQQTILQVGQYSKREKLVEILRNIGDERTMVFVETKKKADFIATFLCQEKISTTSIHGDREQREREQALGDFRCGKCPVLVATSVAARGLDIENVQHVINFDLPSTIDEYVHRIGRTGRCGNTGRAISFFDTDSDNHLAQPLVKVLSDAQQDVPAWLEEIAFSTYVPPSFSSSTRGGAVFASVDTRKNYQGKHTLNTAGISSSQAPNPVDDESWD
Put plainly: co-IP; HEK 293 cells co-transfected with Flag-MVH and Myc-CLOCK and/or Myc-BMAL1; lysed in modified RIPA buffer (50 mM Tris-HCl pH 8.0, 150 mM NaCl, 5 mM EDTA, 15 mM MgCl2, 1% NP-40); Flag-MVH precipitated on M2 Agarose overnight at 4°C; blots with anti-FLAG and anti-MYC.

Experiment [3] deals with T1, CLOCK (endogenous, mouse seminiferous tubules) (mouse (endogenous in seminiferous tubules)). Briefly: co-IP; cytoplasmic and nuclear lysates from seminiferous tubules of Bmal1 WT and Bmal1 KO mice (about 500 µg protein per fraction); anti-CLOCK antibody overnight at 4°C, protein G-agarose; blots of endogenous proteins.

Consider “MIWI (mouse Argonaute/PIWI family RNA-binding protein; endogenous, mouse seminiferous tubules) (from UniProt Q9JMB7 1-862)”, for which the binding result in experiment [1] is listed as “binds”.
For Myc-BMAL1 (from UniProt Q9WTL8 1-632), the binding result in experiment [2] is listed as “binds”.
Consider “eukaryotic translation initiation factor 4E (EIF4E; endogenous, mouse seminiferous tubules) (from UniProt P63073 1-217)”, for which, in experiment [1], the binding result was “binds”.

B1: Myc-CLOCK (protein, UniProt O08785 1-855)
chain: MVFTVSCSKMSSIVDRDDSSIFDGLVEEDDKDKAKRVSRNKSEKKRRDQFNVLIKELGSMLPGNARKMDKSTVLQKSIDFLRKHKETTAQSDASEIRQDWKPTFLSNEEFTQLMLEALDGFFLAIMTDGSIIYVSESVTSLLEHLPSDLVDQSIFNFIPEGEHSEVYKILSTHLLESDSLTPEYLKSKNQLEFCCHMLRGTIDPKEPSTYEYVRFIGNFKSLTSVSTSTHNGFEGTIQRTHRPSYEDRVCFVATVRLATPQFIKEMCTVEEPNEEFTSRHSLEWKFLFLDHRAPPIIGYLPFEVLGTSGYDYYHVDDLENLAKCHEHLMQYGKGKSCYYRFLTKGQQWIWLQTHYYITYHQWNSRPEFIVCTHTVVSYAEVRAERRRELGIEESLPETAADKSQDSGSDNRINTVSLKEALERFDHSPTPSASSRSSRKSSHTAVSDPSSTPTKIPTDTSTPPRQHLPAHEKMTQRRSSFSSQSINSQSVGPSLTQPAMSQAANLPIPQGMSQFQFSAQLGAMQHLKDQLEQRTRMIEANIHRQQEELRKIQEQLQMVHGQGLQMFLQQSNPGLNFGSVQLSSGNSNIQQLTPVNMQGQVVPANQVQSGHISTGQHMIQQQTLQSTSTQQSQQSVMSGHSQQTSLPSQTPSTLTAPLYNTMVISQPAAGSMVQIPSSMPQNSTQSATVTTFTQDRQIRFSQGQQLVTKLVTAPVACGAVMVPSTMLMGQVVTAYPTFATQQQQAQTLSVTQQQQQQQQQPPQQQQQQQQSSQEQQLPSVQQPAQAQLGQPPQQFLQTSRLLHGNPSTQLILSAAFPLQQSTFPPSHHQQHQPQQQQQLPRHRTDSLTDPSKVQPQ
On to B1, for which, in experiment [2], the binding result is “binds”.

B2: MVH (mouse VASA homolog; endogenous, mouse seminiferous tubules) (protein, UniProt Q61496 1-702)
chain: MGDEDWEAEILKPHVSSYVPVFEKDKYSSGANGDTFNRTSASSDIGESSKKENTSTTGGFGRGKGFGNRGFLNNKFEEGDSSGFWKESNNDCEDNQTRSRGFSKRGGCQDGNDSEASGPFRRGGRGSFRGCRGGFGLGRPNSESDQDQGTQRGGGLFGSRKPAASDSGNGDTYQSRSGSGRGGYKGLNEEVVTGSGKNSWKSETEGGESSDSQGPKVTYIPPPPPEDEDSIFAHYQTGINFDKYDTILVEVSGHDAPPAILTFEEANLCQTLNNNIAKAGYTKLTPVQKYSIPIVLAGRDLMACAQTGSGKTAAFLLPILAHMMRDGITASRFKELQEPECIIVAPTRELINQIYLEARKFSFGTCVRAVVIYGGTQFGHSVRQIVQGCNILCATPGRLMDIIGKEKIGLKQVKYLVLDEADRMLDMGFGPEMKKLISCPGMPSKEQRQTLLFSATFPEEIQRLAGDFLKSSYLFVAVGQVGGACRDVQQTILQVGQYSKREKLVEILRNIGDERTMVFVETKKKADFIATFLCQEKISTTSIHGDREQREREQALGDFRCGKCPVLVATSVAARGLDIENVQHVINFDLPSTIDEYVHRIGRTGRCGNTGRAISFFDTDSDNHLAQPLVKVLSDAQQDVPAWLEEIAFSTYVPPSFSSSTRGGAVFASVDTRKNYQGKHTLNTAGISSSQAPNPVDDESWD
As to B2, the binding entry in experiment [3] was “binds”.

Values taken from article PMC3416844.
